# In PMC7118133, “Dual functions of Aire CARD multimerization in the transcriptional regulation of T cell tolerance” (Nature Communications, 2020):
# Chains of the proteins cited; added tags and fusions are not shown. Lines headed by an entry give the natural chain unless they say otherwise; changes in a name come on top. A line that says so, or that is headed by a name, gives the form on record, which may keep a tag or linker.
# human Aire (hAire) CARD A58V (O43918, form named): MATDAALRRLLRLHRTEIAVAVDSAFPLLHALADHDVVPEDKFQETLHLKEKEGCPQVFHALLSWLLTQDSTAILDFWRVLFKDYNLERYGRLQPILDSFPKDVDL
# human Aire (hAire) CARD K83E (O43918, form named): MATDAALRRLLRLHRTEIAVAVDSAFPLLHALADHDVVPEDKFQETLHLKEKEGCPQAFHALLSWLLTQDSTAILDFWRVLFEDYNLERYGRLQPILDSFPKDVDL
# human Aire (hAire) CARD L13P (O43918, form named): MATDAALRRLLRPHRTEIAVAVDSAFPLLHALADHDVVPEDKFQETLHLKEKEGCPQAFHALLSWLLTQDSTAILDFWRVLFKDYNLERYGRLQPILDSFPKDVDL
# human Aire (hAire) CARD L28P (O43918, form named): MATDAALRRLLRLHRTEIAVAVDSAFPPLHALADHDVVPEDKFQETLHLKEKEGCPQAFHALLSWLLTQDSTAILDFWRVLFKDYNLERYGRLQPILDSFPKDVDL
# human Aire (hAire) CARD T16M (O43918, form named): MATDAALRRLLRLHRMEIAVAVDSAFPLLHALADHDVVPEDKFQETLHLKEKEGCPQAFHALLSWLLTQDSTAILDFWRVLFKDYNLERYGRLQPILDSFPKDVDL
# These are yes or no findings as the source states them, for the method shown.
# Columns and labels:
# [1] = target: human Aire (hAire) CARD A58V (human) (UniProt O43918); assay: negative-stain electron microscopy; filament formation of purified hAire CARD variants refolded from 6 M GdHCl by dialysis (20 mM HEPES pH 7.5, 1 M KCl, 5 mM βME, 16 h, 4 °C) and kept at 4 °C for another 24 h; diluted in TNE buffer to ~50–200 µg/ml, uranyl formate stain; both purified
# [2] = target: human Aire (hAire) CARD K83E (human) (UniProt O43918); assay: as above
# [3] = target: human Aire (hAire) CARD L13P (human) (UniProt O43918); assay: as above
# [4] = target: human Aire (hAire) CARD L28P (human) (UniProt O43918); assay: as above
# [5] = target: human Aire (hAire) CARD T16M (human) (UniProt O43918); assay: as above
# [6] = target: mouse Aire (mAire) CARD R16A/E18A (mouse) (UniProt Q9Z0E3); assay: negative-stain electron microscopy; filament formation of purified mAire CARD variants after cleavage of the NusA tag with HRV 3C (4 °C, 16 h); diluted in TNE buffer (100 mM Tris pH 8, 50 mM NaCl, 10 mM EDTA) to ~50–200 µg/ml, uranyl formate stain; WT in Fig. 1b also denatured and refolded; both purified
# [7] = target: mouse Aire (mAire) CARD D35A/D37A (mouse) (UniProt Q9Z0E3); assay: as above
molecule,measurement,setting,value
human Aire (hAire) CARD A58V (from UniProt O43918 1-106) (domain or fragment),binding,[1],no binding (tested: ~50–200 µg/ml)
human Aire (hAire) CARD K83E (from UniProt O43918 1-106) (domain or fragment),binding,[2],no binding (tested: ~50–200 µg/ml)
human Aire (hAire) CARD L13P (from UniProt O43918 1-106) (domain or fragment),binding,[3],no binding (tested: ~50–200 µg/ml)
human Aire (hAire) CARD L28P (from UniProt O43918 1-106) (domain or fragment),binding,[4],no binding (tested: ~50–200 µg/ml)
human Aire (hAire) CARD T16M (from UniProt O43918 1-106) (domain or fragment),binding,[5],no binding (tested: ~50–200 µg/ml)
mouse Aire (mAire) CARD R16A/E18A (from UniProt Q9Z0E3 1-105) (domain or fragment),binding,[6],no binding (tested: ~50–200 µg/ml)
"mouse Aire (mAire) CARD D35A/D37A (domain or fragment, UniProt Q9Z0E3 1-105) MAGGDGMLRRLLRLHRTEIAVAIDSAFPLLHALAAHAVVPEDKFQETLRLKEKEGCPQAFHALLSWLLTRDSGAILDFWRILFKDYNLERYSRLHSILDGFPKDV",binding,[7],no binding (tested: ~50–200 µg/ml)
